Test in all cases: co-IP; HEK293 cotransfected with wild-type or domain-deleted phMUSKect-myc and pFLAG-COLQ; lysis in 50 mM HEPES pH 7.0, 150 mM NaCl, 0.5% NP-40; IP with anti-myc (9E10) and Dynabeads Protein G; blot with anti-FLAG-HRP
Assay [1] concerns the target hMuSKect-myc lacking immunoglobulin-like domain 1 (ΔIg1) (human) (UniProt O15146).
In assay [2] the target is hMuSKect-myc lacking immunoglobulin-like domain 2 (ΔIg2) (human) (UniProt O15146).
The target of assay [3] is hMuSKect-myc lacking immunoglobulin-like domain 3 (ΔIg3) (human) (UniProt O15146).
Assay [4] concerns the target hMuSKect-myc lacking immunoglobulin-like domain 4 (ΔIg4) (human) (UniProt O15146).
The target in assay [5] is hMuSKect-myc lacking the C6 box (ΔC6) (human) (UniProt O15146).

By UniProt entry, the sequences of proteins in these tests, tags left out. Where a name states a change or a piece, a line headed by the entry shows the natural chain unless it says otherwise.
UniProt O15146: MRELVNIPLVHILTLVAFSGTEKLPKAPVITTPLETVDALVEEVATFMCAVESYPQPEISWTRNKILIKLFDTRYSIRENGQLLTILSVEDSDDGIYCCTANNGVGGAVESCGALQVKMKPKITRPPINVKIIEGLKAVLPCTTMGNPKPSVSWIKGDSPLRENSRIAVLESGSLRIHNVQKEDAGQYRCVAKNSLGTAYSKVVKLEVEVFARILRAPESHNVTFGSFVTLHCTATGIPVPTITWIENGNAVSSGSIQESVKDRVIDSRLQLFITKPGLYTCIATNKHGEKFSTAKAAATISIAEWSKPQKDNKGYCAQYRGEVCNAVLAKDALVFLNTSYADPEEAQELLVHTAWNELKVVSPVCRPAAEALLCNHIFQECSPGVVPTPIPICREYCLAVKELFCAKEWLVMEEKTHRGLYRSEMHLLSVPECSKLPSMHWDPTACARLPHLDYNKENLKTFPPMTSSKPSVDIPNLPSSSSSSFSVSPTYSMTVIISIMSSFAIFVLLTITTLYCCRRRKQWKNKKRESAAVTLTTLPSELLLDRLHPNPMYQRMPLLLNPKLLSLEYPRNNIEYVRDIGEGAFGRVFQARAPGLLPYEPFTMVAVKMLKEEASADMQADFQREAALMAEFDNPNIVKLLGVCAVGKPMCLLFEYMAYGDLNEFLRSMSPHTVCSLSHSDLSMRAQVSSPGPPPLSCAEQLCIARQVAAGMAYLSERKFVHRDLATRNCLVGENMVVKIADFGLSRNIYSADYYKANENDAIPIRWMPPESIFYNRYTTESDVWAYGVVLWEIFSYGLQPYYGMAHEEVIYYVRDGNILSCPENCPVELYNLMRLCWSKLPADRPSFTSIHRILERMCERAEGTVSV

Results are given in words; binding and its absence hold for the method and conditions named. In cells and extracts the contact can be indirect. For some assays here: Binding calls can cover weak binding; strength is not graded here. Where a sequence is shown, tags or fusion partners need not be part of it.

B1: FLAG-ColQ (human collagen Q with FLAG inserted between codons 35 and 36) (protein, UniProt Q9Y215 23-455)
chain: QPTFINSVLPISAALPSLDQKKRGGHKACCLLTPPPPPLFPPPFFRGGRSPLLSPDMKNLMLELETSQSPCMQGSLGSPGPPGPQGPPGLPGKTGPKGEKGELGRPGRKGRPGPPGVPGMPGPIGWPGPEGPRGEKGDLGMMGLPGSRGPMGSKGYPGSRGEKGSRGEKGDLGPKGEKGFPGFPGMLGQKGEMGPKGEPGIAGHRGPTGRPGKRGKQGQKGDSGVMGPPGKPGPSGQPGRPGPPGPPPAGQLIMGPKGERGFPGPPGRCLCGPTMNVNNPSYGESVYGPSSPRVPVIFVVNNQEELERLNTQNAIAFRRDQRSLYFKDSLGWLPIQLTPFYPVDYTADQHGTCGDGLLQPGEECDDGNSDVGDDCIRCHRAYCGDGHRHEGVEDCDGSDFGYLTCETYLPGSYGDLQCTQYCYIDSTPCRYFT
Consider B1, for which the binding entry in assay [1] was “no binding”; in assay [2], “binds”; in assay [3] it was “binds”; in assay [4] it was “no binding”; in assay [5], “binds”.

(Values after publication PMC4564764, “Collagen Q and anti-MuSK autoantibody competitively suppress agrin/LRP4/MuSK signaling” (Scientific Reports, 2015).)
